# Measurements: patent US20170001953A1, “FUMARATE COMPOUNDS, PHARMACEUTICAL COMPOSITIONS THEREOF, AND METHODS OF USE” (priority 2015, published 2017)
# Some of these results come from one statement about several compounds together.
# Legend:
# [1] = Stability of fumarate compounds in PBS buffer; assay type: physicochemical; conditions: PBS 50 mM, pH 7.0 to 7.4, 20 to 37° C., 60 min, HPLC
# [2] = system: porcine liver esterase; test: Hydrolysis of fumarate compounds in vitro by porcine liver esterase; assay type: in vitro ADME; conditions: porcine liver esterase in PBS buffer pH 7.0 to 8.0, 20 to 37° C., ca. 24 h, HPLC
SMILES,stable (stability in PBS buffer) [1],"converted to MHF, monoester fumarates and/or fumaric acid [2]"
"COC(=O)/C=C/C(=O)OCCNC(=O)Oc1ccccc1 [Compound 7, O1-Methyl O4-[2-(phenoxycarbonylamino)ethyl] (E)-but-2-enedioate]",> 85%,> 25%
"COC(=O)/C=C/C(=O)OC[C@@H](C)NC(=O)Oc1ccccc1 [Compound 14, O1-Methyl O4-[(2R)-2-(phenoxycarbonylamino)propyl] (E)-but-2-enedioate]",> 85%,> 25%
"COC(=O)/C=C/C(=O)OC[C@H](C)NC(=O)Oc1ccccc1 [Compound 21, O1-Methyl O4-[(2S)-2-(phenoxycarbonylamino)propyl] (E)-but-2-enedioate]",> 85%,> 25%
